No constants are given. Whether binding was seen depends on the method and setting. Binding seen in cells or lysates may run through a third protein. Some entries that bind do so weakly or less than the wild type.
Molecular target: NF-κB p65 (human (endogenous in Caco-2 and HT-29)) (UniProt Q04206)
Test: co-IP; nuclear proteins of TNF-stimulated Caco-2 and HT-29 cells; precipitated with anti-phospho-p65 antibody, immunoblotted with anti-MUC1 Ab5 or anti-EzH2 antibody

The chains behind the UniProt entries cited, without tags or fusion partners. Residues count along the entry.
UniProt Q04206: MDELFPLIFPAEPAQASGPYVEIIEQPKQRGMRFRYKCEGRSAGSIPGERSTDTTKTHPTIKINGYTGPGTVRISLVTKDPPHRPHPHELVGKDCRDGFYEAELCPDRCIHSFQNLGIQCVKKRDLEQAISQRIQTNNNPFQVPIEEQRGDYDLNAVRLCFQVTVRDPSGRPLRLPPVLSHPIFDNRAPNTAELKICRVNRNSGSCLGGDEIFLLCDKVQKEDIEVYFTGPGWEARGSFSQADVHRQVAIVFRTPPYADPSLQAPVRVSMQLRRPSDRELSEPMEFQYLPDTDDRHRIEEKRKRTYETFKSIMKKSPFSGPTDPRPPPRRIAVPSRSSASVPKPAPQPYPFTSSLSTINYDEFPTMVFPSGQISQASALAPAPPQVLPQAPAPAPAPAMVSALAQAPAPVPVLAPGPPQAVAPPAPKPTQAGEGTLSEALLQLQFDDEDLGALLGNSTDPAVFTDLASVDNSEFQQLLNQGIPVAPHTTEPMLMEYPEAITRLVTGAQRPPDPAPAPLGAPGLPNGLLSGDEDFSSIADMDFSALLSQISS
UniProt P15941, residues 24-1255: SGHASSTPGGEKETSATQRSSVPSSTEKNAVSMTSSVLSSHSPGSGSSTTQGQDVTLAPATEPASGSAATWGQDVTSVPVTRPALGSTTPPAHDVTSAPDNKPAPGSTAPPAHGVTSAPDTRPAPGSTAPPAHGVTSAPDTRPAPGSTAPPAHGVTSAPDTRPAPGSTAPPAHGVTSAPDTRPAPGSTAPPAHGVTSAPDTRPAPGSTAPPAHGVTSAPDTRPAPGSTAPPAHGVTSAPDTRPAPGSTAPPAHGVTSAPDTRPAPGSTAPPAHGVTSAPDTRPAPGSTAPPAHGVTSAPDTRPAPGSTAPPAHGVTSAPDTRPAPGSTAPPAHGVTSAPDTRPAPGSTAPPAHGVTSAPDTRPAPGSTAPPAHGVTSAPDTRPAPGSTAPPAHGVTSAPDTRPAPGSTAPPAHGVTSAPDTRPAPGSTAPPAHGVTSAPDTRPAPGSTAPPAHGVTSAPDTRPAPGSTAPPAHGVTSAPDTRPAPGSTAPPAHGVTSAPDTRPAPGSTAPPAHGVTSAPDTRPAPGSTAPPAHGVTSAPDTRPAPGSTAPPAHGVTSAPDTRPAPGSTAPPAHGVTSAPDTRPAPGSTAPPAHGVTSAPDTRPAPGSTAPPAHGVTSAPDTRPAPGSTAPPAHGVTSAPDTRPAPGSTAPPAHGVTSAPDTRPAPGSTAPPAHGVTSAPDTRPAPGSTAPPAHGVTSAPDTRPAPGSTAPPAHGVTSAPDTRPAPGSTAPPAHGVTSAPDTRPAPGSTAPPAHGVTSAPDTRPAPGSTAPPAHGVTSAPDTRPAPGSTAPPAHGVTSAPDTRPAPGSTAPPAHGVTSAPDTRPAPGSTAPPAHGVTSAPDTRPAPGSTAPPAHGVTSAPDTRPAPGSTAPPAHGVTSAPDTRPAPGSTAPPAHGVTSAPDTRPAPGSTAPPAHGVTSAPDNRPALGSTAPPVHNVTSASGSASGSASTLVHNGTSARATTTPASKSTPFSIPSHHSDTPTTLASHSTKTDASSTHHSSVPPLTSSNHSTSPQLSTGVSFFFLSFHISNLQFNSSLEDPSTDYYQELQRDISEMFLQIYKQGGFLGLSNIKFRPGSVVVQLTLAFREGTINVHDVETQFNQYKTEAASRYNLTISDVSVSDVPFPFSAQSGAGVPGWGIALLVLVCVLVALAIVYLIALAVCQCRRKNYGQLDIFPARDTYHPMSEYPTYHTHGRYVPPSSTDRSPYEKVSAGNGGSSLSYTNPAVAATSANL

- binding: binds
Substance: MUC1 mucin (from UniProt P15941 24-1255)
